These results are taken from paper PMC11139886.

Chains of the proteins cited; added tags and fusions are not shown. Lines headed by an entry give the natural chain unless they say otherwise; changes in a name come on top.
UniProt P45973: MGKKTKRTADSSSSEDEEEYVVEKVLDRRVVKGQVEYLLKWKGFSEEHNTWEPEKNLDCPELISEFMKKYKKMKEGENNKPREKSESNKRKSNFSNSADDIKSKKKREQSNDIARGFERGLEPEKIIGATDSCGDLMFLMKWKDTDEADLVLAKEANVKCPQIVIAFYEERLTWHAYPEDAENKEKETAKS
UniProt P68400: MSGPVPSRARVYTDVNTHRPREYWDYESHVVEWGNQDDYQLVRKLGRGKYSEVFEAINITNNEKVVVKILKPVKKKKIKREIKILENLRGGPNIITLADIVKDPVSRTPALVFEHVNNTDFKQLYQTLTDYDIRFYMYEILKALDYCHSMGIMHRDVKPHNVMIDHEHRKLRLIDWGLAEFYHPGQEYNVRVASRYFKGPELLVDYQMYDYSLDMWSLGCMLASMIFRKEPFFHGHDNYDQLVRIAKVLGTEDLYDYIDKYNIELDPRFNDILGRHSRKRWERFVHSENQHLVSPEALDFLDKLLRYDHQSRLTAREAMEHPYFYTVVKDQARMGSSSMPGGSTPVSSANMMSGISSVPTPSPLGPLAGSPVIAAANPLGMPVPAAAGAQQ

No constants are given. Whether binding was seen depends on the method and setting. Binding seen in cells or lysates may run through a third protein. Some entries that bind do so weakly or less than the wild type.

The target in assay [1] is heterochromatin protein 1α (HP1α) T50A, FLAG-tagged (UniProt P45973). Nature of the assay: co-IP; HP1α (wild type or T50A) with CK2α; shown only in Supplementary Fig. S5D, details not shown.
The target in assay [2] is heterochromatin protein 1α (HP1α), FLAG-tagged, wild type (UniProt P45973). The description is as above.

Consider “casein kinase 2 α (CK2α), HA-tagged (from UniProt P68400 1-391) (enzyme)”, for which the binding entry in assay [1] and in assay [2] was “binds” throughout.
